Test results published in the supplement of paper PMC10849652.
This is one part of the list.

The chains behind the UniProt entries cited, without tags or fusion partners. Where a name states a change or a piece, a line headed by the entry shows the natural chain unless it says otherwise.
UniProt Q9UBW7: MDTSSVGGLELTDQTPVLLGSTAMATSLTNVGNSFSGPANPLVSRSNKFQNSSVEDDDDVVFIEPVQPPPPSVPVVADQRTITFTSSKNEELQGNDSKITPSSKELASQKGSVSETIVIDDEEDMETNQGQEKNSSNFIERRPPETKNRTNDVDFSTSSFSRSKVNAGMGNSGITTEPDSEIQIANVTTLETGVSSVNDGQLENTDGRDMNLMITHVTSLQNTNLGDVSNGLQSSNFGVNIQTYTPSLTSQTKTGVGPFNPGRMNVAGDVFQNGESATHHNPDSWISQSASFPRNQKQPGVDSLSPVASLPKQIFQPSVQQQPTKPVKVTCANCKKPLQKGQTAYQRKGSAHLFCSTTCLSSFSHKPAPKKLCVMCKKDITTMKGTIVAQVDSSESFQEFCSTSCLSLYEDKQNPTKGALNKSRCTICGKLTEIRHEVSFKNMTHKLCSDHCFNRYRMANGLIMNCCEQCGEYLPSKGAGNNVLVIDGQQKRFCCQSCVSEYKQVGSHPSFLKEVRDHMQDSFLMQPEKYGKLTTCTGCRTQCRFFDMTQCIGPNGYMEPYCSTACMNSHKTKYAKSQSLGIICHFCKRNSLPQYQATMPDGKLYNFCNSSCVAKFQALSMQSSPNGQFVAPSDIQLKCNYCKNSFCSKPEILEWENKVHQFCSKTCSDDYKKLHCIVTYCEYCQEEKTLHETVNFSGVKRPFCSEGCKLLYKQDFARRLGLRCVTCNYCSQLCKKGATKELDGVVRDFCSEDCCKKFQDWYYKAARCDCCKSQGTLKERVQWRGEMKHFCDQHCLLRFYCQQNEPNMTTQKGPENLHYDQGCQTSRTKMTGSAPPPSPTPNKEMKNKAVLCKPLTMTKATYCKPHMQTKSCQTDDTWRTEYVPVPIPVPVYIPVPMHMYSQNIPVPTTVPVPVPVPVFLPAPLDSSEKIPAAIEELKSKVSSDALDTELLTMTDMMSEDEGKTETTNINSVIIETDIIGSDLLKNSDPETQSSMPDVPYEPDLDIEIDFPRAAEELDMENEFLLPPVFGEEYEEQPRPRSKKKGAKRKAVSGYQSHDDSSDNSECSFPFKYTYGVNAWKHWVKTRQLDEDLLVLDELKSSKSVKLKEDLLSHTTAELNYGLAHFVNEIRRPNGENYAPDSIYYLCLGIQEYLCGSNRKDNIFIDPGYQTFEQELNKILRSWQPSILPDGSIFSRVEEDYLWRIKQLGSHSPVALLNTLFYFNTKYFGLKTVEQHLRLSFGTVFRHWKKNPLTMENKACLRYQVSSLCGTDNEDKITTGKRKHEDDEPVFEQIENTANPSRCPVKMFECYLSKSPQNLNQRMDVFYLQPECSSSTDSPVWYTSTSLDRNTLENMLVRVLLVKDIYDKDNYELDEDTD
UniProt Q9ULC8: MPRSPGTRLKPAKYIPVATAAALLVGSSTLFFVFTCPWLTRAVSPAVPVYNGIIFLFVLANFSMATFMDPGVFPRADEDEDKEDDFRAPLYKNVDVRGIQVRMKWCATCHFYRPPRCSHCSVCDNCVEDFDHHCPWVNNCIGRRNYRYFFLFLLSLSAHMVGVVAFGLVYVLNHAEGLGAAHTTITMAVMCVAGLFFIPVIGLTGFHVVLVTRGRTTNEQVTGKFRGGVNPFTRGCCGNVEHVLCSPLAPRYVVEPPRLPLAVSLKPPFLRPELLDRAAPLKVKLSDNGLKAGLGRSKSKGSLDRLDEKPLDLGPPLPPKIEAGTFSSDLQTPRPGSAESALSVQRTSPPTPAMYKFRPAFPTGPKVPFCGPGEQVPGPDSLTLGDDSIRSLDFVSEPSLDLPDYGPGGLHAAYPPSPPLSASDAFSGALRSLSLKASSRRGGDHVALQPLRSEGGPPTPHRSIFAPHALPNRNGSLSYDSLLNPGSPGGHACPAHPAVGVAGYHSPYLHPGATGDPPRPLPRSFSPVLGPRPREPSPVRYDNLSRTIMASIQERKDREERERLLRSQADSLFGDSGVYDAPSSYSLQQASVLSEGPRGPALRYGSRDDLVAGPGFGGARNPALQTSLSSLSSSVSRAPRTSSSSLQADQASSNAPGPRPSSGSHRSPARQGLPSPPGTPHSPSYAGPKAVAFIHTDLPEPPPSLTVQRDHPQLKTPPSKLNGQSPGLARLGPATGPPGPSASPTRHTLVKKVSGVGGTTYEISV
UniProt Q96KR1: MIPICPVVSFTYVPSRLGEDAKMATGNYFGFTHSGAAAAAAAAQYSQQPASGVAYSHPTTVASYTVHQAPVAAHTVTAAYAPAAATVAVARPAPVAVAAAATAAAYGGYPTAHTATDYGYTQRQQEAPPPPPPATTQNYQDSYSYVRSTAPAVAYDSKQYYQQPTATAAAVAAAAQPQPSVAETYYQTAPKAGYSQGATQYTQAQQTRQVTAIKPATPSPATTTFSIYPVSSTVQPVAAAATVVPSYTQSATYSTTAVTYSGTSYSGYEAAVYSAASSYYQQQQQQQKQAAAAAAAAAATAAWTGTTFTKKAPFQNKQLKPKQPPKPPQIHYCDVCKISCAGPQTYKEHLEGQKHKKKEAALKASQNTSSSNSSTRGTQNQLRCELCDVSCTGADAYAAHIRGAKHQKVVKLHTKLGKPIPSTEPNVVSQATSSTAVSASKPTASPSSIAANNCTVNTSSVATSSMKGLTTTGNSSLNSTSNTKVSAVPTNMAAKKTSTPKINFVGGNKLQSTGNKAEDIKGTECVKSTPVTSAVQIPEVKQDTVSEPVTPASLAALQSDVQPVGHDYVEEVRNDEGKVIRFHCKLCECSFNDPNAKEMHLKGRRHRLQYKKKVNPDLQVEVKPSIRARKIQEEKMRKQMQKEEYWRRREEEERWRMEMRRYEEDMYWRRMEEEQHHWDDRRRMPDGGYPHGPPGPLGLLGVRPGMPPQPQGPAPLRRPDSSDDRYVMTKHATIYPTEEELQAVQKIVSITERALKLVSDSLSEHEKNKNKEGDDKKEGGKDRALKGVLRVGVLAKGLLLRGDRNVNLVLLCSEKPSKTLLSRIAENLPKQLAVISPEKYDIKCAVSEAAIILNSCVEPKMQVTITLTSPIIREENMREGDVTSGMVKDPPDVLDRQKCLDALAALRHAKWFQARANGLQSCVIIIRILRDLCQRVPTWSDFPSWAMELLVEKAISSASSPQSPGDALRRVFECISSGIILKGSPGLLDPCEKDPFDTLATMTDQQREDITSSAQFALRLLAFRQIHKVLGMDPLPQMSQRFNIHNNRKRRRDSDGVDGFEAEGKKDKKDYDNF
UniProt Q5VZL5: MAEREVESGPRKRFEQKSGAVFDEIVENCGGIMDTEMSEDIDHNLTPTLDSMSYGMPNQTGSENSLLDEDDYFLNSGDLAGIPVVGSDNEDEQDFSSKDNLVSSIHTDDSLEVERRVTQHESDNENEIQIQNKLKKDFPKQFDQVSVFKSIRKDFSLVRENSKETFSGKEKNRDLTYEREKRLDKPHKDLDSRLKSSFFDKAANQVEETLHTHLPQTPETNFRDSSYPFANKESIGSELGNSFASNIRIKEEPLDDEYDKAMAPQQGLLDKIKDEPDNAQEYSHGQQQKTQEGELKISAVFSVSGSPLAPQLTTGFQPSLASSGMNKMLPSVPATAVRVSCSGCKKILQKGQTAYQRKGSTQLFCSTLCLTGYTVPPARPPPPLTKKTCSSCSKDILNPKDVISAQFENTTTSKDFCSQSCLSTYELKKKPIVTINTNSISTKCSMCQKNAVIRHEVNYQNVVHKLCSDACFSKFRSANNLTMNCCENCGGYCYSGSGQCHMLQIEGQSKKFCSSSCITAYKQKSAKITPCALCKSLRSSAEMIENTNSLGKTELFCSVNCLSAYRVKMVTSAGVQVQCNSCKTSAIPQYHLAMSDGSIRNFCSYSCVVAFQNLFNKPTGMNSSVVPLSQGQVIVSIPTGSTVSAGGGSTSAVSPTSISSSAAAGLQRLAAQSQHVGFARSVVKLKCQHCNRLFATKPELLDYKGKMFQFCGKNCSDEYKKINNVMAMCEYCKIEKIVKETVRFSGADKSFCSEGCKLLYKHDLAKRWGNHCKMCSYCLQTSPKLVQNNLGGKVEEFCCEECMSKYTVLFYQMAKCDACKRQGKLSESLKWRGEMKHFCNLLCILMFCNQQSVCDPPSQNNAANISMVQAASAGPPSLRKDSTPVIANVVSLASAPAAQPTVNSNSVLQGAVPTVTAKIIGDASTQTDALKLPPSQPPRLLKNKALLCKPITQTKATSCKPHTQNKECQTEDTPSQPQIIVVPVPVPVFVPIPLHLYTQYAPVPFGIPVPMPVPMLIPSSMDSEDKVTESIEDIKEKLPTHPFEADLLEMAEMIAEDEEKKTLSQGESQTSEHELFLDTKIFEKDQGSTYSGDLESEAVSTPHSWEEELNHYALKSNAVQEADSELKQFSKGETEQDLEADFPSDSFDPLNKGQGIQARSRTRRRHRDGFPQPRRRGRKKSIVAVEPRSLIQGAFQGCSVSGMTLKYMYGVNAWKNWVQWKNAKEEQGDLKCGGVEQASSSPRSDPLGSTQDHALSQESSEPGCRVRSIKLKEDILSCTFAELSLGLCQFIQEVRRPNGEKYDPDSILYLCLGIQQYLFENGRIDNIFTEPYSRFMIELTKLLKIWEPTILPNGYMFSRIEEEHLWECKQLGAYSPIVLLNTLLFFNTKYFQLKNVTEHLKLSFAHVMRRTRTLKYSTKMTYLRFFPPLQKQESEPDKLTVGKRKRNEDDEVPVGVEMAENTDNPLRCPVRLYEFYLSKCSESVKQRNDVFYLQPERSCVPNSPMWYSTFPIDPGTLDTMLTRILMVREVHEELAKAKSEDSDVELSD
UniProt Q9H5J0: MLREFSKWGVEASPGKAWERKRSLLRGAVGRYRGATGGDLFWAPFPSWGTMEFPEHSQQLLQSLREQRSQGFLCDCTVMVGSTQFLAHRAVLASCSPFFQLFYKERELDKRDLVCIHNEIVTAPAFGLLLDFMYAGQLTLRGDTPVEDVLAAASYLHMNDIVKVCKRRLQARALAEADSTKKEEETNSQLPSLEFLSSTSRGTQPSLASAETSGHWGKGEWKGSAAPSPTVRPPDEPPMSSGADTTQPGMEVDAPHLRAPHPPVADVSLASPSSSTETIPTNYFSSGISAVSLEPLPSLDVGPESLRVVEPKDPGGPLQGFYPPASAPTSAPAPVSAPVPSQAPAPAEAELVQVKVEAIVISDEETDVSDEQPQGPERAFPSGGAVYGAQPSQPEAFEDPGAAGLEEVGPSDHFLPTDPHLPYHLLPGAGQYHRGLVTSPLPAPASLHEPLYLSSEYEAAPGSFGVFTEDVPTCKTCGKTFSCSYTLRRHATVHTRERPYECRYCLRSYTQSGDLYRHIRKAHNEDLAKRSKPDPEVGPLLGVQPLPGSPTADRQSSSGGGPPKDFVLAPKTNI
UniProt Q9NXF8: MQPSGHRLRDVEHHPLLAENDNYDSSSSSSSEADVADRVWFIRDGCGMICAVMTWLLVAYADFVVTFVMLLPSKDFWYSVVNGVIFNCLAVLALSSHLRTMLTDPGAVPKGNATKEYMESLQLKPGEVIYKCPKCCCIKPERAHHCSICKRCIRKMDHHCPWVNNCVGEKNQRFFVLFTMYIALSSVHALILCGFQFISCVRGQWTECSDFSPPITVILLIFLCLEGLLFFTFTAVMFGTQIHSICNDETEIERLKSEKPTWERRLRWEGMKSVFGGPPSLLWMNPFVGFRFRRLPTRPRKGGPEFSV
UniProt Q9NPG8: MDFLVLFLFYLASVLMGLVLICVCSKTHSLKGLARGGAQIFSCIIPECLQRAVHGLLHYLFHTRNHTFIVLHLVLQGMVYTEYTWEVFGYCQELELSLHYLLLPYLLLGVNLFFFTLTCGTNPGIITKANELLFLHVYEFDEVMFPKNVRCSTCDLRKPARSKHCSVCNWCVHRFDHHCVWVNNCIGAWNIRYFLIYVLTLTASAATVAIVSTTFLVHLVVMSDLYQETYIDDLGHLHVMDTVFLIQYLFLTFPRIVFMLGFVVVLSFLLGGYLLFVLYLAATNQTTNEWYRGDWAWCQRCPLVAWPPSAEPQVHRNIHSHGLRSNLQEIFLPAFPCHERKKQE
UniProt Q9BYJ9: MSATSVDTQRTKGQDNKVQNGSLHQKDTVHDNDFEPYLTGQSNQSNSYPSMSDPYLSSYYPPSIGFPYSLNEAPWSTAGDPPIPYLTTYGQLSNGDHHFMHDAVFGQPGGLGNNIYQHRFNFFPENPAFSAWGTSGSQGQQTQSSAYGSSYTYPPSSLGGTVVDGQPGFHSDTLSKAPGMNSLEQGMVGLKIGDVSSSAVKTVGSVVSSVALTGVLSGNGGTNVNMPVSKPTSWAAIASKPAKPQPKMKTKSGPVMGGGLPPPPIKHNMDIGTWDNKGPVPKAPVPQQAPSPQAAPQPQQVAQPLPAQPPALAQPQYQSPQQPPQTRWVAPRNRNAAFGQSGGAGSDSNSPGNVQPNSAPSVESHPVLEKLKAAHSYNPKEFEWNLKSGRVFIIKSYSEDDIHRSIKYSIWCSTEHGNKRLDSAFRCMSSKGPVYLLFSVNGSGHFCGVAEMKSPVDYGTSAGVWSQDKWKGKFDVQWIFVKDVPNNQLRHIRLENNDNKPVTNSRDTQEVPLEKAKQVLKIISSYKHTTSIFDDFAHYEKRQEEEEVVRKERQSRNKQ

Key:
Test in all cases: log2 fold change, soluble protein after heating vs DMSO (PISA); higher = thermal stabilisation; K562 cells, 10 uM, 30 min; active = over 0.2 and 3.5 SD of the protein, either way, in both replicates (recomputed)
[1] = compound: COC1=CC=C(C=C1)CN2C=CC3=C2C=C(C=C3)C(=O)NO
Summary of the method: (§1)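 K562 cells at 2×10^6 cells/mL were treated for 30 min with 10 μM compound, and aliquots were heated for 3 min over 48°C-58°C before pooling. Extraction used PBS with 0.5% NP-40 at 4°C, and soluble protein was the supernatant after 21,000xg for 90 min, measured by TMTpro 16plex LC-MS/MS with channel sums equalised. Thermal stability values, relative to control samples and from duplicates, are log2 fold changes.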

[2] = compound: CO[C@H]1C[C@@H]2CC[C@@H](C)[C@@](O)(O2)C(=O)C(=O)N2CCCC[C@H]2C(=O)O[C@H]([C@H](C)C[C@@H]2CC[C@H](n3cnnn3)[C@H](OC)C2)CC(=O)[C@H](C)/C=C(\C)[C@@H](O)[C@@H](OC)C(=O)[C@H](C)C[C@H](C)/C=C/C=C/C=C/1C [zotarolimus]
Summary of the method: as §1

[3] = compound: C[C@@H](Oc1cc(-c2cnn(C3CCNCC3)c2)cnc1N)c1c(Cl)ccc(F)c1Cl [crizotinib]
Summary of the method: as §1

[4] = compound: C[C@@H]1COCCN1C2=NC(=NC(=C2)C3(CC3)S(=O)(=O)C)C4=C5C=CNC5=CC=C4
Summary of the method: as §1

[5] = compound: C[C@H](C1=CC=C(C=C1)C(=O)NC2=C3C=CNC3=NC=C2)N
Summary of the method: as §1

[6] = compound: Cc1ccc(-n2nc(C(C)(C)C)cc2NC(=O)Nc2ccc(OCCN3CCOCC3)c3ccccc23)cc1 [doramapimod]
Summary of the method: as §1

[7] = compound: C[C@H](Nc1ncnc2nc[nH]c12)c1cc2cccc(Cl)c2c(=O)n1-c1ccccc1 [duvelisib]
Summary of the method: as §1

[8] = compound: Cc1cc(Nc2cc(N3CCN(C)CC3)nc(Sc3ccc(NC(=O)C4CC4)cc3)n2)n[nH]1 [tozasertib]
Summary of the method: as §1

[9] = compound: Cc1cc(SCc2sc(-c3ccc(C(F)(F)F)cc3)nc2C)ccc1OCC(=O)O
Summary of the method: as §1

[10] = compound: Cc1ccc(C(=O)N(CCCN)[C@@H](c2nc3cc(Cl)ccc3c(=O)n2Cc2ccccc2)C(C)C)cc1 [ispinesib]
Summary of the method: as §1

[11] = compound: CON(C)C(=O)N1N=C(c2cc(F)ccc2F)S[C@@]1(CCCN)c1ccccc1 [filanesib]
Summary of the method: as §1

[12] = compound: COc1cc(C(=O)O)ccc1NC(=O)[C@@H]1N[C@@H](CC(C)(C)C)[C@](C#N)(c2ccc(Cl)cc2F)[C@H]1c1cccc(Cl)c1F [idasanutlin]
Summary of the method: as §1

[13] = compound: COc1cc(Nc2ncc3c(n2)-c2ccc(Cl)cc2C(c2c(F)cccc2OC)=NC3)ccc1C(=O)O [alisertib]
Summary of the method: as §1

[14] = compound: COc1cc2nc(-c3cc(F)ccc3O)nc(N[C@@H]3CNC[C@H]3C(C)(C)O)c2cc1OC
Summary of the method: as §1

[15] = compound: COc1cc2ncnc(Nc3ccc(F)c(Cl)c3)c2cc1OCCCN1CCOCC1 [gefitinib]
Summary of the method: as §1

[16] = compound: COc1cccc2cc(-c3nc([C@H]4CC[C@H](C(=O)O)CC4)n4ncnc(N)c34)[nH]c12
Summary of the method: as §1

[17] = compound: CS(=O)(=O)CCNCc1ccc(-c2ccc3ncnc(Nc4ccc(OCc5cccc(F)c5)c(Cl)c4)c3c2)o1 [lapatinib]
Summary of the method: as §1

[18] = compound: CS(=O)(=O)c1ccc(-c2cnc(N)c(C(=O)Nc3ccccc3)n2)cc1
Summary of the method: as §1

[19] = compound: CS(=O)(=O)N1CCN(Cc2cc3nc(-c4cccc5[nH]ncc45)nc(N4CCOCC4)c3s2)CC1 [pictilisib]
Summary of the method: as §1

[20] = compound: Cc1cc(Nc2cc(CN3CCOCC3)c3nc(C)c(Cc4ccc(Cl)cc4F)n3n2)n[nH]1 [gandotinib]
Summary of the method: as §1

Measured: log2 fold change

XYLT2 (UniProt Q9H1B5)
inactive: [1] -0.088 | [2] -0.182 | [3] 0.022 | [4] 0.451 | [5] 0.095 | [6] 0.082

ZNF22 (UniProt P17026)
inactive: [1] -0.226 | [2] -0.03 | [3] 0.044 | [5] 0.219 | [7] 0.138 | [8] 0.12 | [9] -0.09 | [6] 0.103 | [10] 0.058

YBX3 isoform 2 (UniProt P16989)
inactive: [1] -0.172 | [11] 0.105 | [2] -0.076 | [12] 0.291 | [13] -0.142 | [14] 0.04 | [15] 0.009 | [16] -0.139 | [17] 0.217 | [18] -0.161 | [3] 0.11 | [4] -0.51 | [5] 0.201 | [7] -0.343 | [8] 0.018 | [9] -0.262 | [6] 0.098 | [10] -0.149

XRN1 (UniProt Q8IZH2)
inactive: [1] -0.03 | [2] 0.021 | [13] 0.114 | [15] 0.042 | [16] -0.355 | [19] -0.13 | [3] -0.27 | [4] 0.257 | [5] 0.394 | [7] -0.113 | [20] -0.063 | [8] -0.133 | [9] 0.076 | [6] 0.159 | [10] -0.225

ZMYM2 (UniProt Q9UBW7)
inactive: [1] 0.197 | [14] 0.252 | [17] -0.271 | [3] -0.573 | [7] 0.037 | [9] -0.093 | [6] -0.12

ZCCHC9 (UniProt Q8N567)
active: [11] 0.527
inactive: [1] -0.05 | [2] -0.044 | [12] 0.139 | [13] -0.083 | [14] -0.006 | [15] -0.062 | [16] -0.121 | [17] 0.028 | [19] -0.004 | [18] 0.1 | [3] 0.032 | [4] -0.381 | [5] 0.359 | [20] 0.265 | [6] 0.169 | [10] -0.353

ZDHHC8 isoform 3 (UniProt Q9ULC8)
inactive: [1] 0.07 | [15] 0.023 | [3] -0.187 | [4] 0.284 | [9] 0.031 | [6] 0.359

ZFYVE9 (UniProt O95405)
inactive: [1] 0.054 | [11] -0.205 | [2] 0.061 | [13] -0.018 | [14] -0.139 | [15] 0.06 | [16] -0.01 | [17] 0.005 | [18] 0.017 | [3] -0.149 | [4] 0.002 | [5] -0.032 | [7] -0.134 | [8] 0.095 | [9] 0.082 | [6] -0.063 | [10] -0.087

ZFR (UniProt Q96KR1)
inactive: [1] 0.071 | [11] 0.307 | [2] -0.09 | [13] -0.038 | [15] -0.026 | [16] -0.03 | [19] 0.02 | [18] -0.205 | [3] -0.097 | [4] -0.373 | [5] 0.372 | [7] -0.072 | [20] -0.106 | [8] -0.023 | [9] 0 | [6] 0.07 | [10] 0.043

ZMYM4 (UniProt Q5VZL5)
inactive: [1] 0.292 | [11] -0.14 | [2] 0.025 | [13] -0.03 | [15] -0.063 | [16] 0.051 | [19] -0.223 | [18] -0.315 | [3] -0.019 | [4] -0.013 | [5] 0.277 | [20] 0.083 | [8] -0.196 | [6] 0.197 | [10] 0.049

XPO6 (UniProt Q96QU8)
inactive: [1] -0.453 | [11] -0.074 | [2] 0.047 | [12] -0.079 | [13] 0.171 | [14] 0.064 | [15] -0.029 | [16] -0.052 | [17] -0.055 | [19] -0.025 | [18] -0.033 | [3] 0.177 | [4] -0.277 | [5] 0.031 | [20] 0.104 | [9] 0.027 | [6] 0.179 | [10] 0

ZBTB3 (UniProt Q9H5J0)
inactive: [1] 0.021 | [2] 0.039 | [12] -0.364 | [13] -0.141 | [14] 0.027 | [15] -0.087 | [16] 0.026 | [17] 0.09 | [19] 0.083 | [3] 0.199 | [5] -0.345 | [20] -0.022 | [8] -0.126 | [6] -0.034 | [10] -0.014

ZDHHC7 isoform 2 (UniProt Q9NXF8)
inactive: [1] -0.022 | [2] -0.245 | [12] -0.013 | [14] -0.012 | [15] 0.062 | [17] 0.034 | [19] 0.089 | [3] -0.131 | [4] -0.037 | [5] -0.065 | [20] 0.034 | [9] -0.075 | [6] 0.113 | [10] 0.126

ZC3H13 (UniProt Q5T200)
inactive: [1] -0.077 | [2] -0.303 | [12] 0.227 | [13] -0.049 | [14] 0.086 | [15] 0.012 | [16] 0.625 | [17] -0.16 | [19] 0.164 | [3] -0.024 | [4] -0.025 | [5] 0.562 | [7] 0.2 | [20] 0.01 | [8] -0.121 | [9] -0.351 | [6] 0.23 | [10] -0.372

ZFAND1 (UniProt Q8TCF1)
inactive: [1] -0.247 | [11] -0.075 | [13] -0.088 | [14] -0.351 | [15] -0.002 | [16] 0.154 | [17] 0.23 | [18] -0.014 | [3] 0.106 | [8] 0.256 | [6] -0.011 | [10] 0.216

2 entries drawn at random from the list so far:
ZDHHC7 isoform 2 (UniProt Q9NXF8)
inactive: [1] -0.022 | [2] -0.245 | [12] -0.013 | [14] -0.012 | [15] 0.062 | [17] 0.034 | [19] 0.089 | [3] -0.131 | [4] -0.037 | [5] -0.065 | [20] 0.034 | [9] -0.075 | [6] 0.113 | [10] 0.126

ZBTB3 (UniProt Q9H5J0)
inactive: [1] 0.021 | [2] 0.039 | [12] -0.364 | [13] -0.141 | [14] 0.027 | [15] -0.087 | [16] 0.026 | [17] 0.09 | [19] 0.083 | [3] 0.199 | [5] -0.345 | [20] -0.022 | [8] -0.126 | [6] -0.034 | [10] -0.014

(further entries)

ZEB2 (UniProt O60315)
inactive: [1] -0.078 | [11] 0.025 | [13] 0.103 | [14] -0.018 | [15] -0.086 | [16] 0.051 | [17] 0.019 | [18] 0.025 | [3] -0.141 | [4] 0.001 | [9] 0.089 | [6] 0.032 | [10] 0.05

ZDHHC12 isoform 3 (UniProt Q96GR4)
inactive: [1] -0.018 | [12] -0.078 | [14] 0.021 | [17] -0.133 | [3] 0.148 | [7] 0.157 | [8] -0.154 | [9] -0.1 | [6] -0.148

ZDHHC4 (UniProt Q9NPG8)
inactive: [1] 0.067 | [11] 0.013 | [13] -0.03 | [14] -0.031 | [16] -0.138 | [17] 0.084 | [18] -0.085 | [3] -0.033 | [4] 0.095 | [6] -0.012

YTHDF1 (UniProt Q9BYJ9)
inactive: [1] 0.186 | [3] -0.257 | [6] 0.12
